Primary screen of a compound library

Sequences of proteins named here, by UniProt entry; tags and fusion partners are left off. Residues count along the entry.
UniProt Q4DA54, 1-478: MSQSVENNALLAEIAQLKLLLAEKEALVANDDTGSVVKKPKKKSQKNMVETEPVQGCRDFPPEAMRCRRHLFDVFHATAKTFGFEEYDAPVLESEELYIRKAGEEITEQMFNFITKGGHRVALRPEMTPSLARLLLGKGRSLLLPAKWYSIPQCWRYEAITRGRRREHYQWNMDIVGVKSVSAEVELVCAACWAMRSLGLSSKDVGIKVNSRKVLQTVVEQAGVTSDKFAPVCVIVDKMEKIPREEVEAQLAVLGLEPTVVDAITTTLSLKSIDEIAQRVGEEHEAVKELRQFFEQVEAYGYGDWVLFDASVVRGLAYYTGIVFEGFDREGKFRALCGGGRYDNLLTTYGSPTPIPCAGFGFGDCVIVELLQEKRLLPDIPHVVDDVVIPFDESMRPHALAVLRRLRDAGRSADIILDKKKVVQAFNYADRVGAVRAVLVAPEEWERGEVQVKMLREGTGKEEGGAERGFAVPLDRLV
UniProt P9WPC5, whole entry: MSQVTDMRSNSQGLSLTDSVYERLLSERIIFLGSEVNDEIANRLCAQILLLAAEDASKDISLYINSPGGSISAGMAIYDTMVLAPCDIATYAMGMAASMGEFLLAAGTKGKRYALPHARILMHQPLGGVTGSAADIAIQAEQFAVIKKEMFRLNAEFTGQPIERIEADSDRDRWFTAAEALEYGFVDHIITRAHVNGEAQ
UniProt P9WPC3, whole entry partner: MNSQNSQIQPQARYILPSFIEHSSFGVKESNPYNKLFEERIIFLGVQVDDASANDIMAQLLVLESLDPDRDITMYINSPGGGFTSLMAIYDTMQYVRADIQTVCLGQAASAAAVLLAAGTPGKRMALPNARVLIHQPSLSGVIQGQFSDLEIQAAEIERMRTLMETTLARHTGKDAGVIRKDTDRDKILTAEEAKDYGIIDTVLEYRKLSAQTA
UniProt Q8IDJ8, 1-583: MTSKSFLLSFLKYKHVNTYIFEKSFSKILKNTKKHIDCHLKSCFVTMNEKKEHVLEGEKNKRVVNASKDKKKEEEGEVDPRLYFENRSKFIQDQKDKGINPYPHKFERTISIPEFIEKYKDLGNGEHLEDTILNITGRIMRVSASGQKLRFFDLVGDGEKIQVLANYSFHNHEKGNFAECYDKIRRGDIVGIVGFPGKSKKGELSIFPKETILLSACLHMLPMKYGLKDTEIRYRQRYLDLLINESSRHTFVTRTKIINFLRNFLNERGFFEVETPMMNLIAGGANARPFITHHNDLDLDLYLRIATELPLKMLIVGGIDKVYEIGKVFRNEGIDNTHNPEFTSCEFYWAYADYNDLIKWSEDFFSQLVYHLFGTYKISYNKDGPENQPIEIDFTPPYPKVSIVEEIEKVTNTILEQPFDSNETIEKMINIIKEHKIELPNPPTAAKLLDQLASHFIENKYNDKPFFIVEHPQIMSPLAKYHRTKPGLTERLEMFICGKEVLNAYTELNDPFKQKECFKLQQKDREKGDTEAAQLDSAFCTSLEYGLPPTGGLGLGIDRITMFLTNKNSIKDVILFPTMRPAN
UniProt A4I591, 1-473: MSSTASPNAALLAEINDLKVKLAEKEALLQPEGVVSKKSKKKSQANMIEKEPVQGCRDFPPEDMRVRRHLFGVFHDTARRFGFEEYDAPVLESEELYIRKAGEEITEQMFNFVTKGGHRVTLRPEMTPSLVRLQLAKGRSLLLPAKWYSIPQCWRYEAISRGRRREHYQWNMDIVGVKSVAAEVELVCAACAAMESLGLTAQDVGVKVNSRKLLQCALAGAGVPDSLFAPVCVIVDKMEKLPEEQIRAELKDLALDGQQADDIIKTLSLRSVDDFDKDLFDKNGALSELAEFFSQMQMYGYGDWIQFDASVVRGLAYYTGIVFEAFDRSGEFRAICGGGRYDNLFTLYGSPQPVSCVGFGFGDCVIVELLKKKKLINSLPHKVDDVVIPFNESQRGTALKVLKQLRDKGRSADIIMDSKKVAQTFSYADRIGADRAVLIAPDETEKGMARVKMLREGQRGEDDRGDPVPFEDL

Source: ChEMBL document CHEMBL3988442, “University of Dundee, Small-Polar-MMV Screening Library” (2021).

A: 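Histidine-tRNA ligase, Trypanosoma cruzi CL Brener (UniProt Q4DA54). Enzyme assay of histidyl-tRNA synthetase; the read-out is not stated. Concentration: 30 µM. The record gives no direction; compounds that gave an IC50 in retests scored well above the rest, so higher reads as stronger inhibition. Size under these conditions: about 69,000 compounds, about 31 of them at 50% or above in at least one test.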
B: 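Protease assay of ClpP1P2, read by the AMC dye that it sets free. Target: ClpP1P2, Mycobacterium tuberculosis (UniProt P9WPC5 and UniProt P9WPC3). Tested at 50 µM. Direction is inferred from only a few compounds that gave an IC50; most scored high, so higher reads as stronger inhibition. Most other retested compounds had strongly negative values. Of about 69,000 compounds tested this way, about 10 (0.015%) reached 50% or more in at least one test.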
C: 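Lysine-tRNA ligase, Plasmodium falciparum 3D7 (UniProt Q8IDJ8). Enzyme assay of the cytosolic lysyl-tRNA synthetase in 384-well plates, read by luminescence. Compounds at 30 µM. Direction is inferred from only a few compounds that gave an IC50; most scored high, so higher reads as stronger inhibition. About 69,000 compounds were tested under these conditions; 0.071% (about 49) showed 50% or more at least once.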
D: 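Histidine-tRNA ligase, Leishmania infantum (UniProt A4I591). Enzyme assay of histidyl-tRNA synthetase; the read-out is not stated. Tested at 30 µM. Higher reads as stronger inhibition (inferred: compounds with an IC50 in retests scored well above the rest). The assay is labelled LdHisRS but filed under L. infantum. About 69,000 compounds were tested under these conditions; 0.6% (about 410) showed 50% or more at least once.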

Each number is a percent effect as filed.
The controls that fix the scale are not given in the record; negative values are as filed.
Compounds were drawn at random from those tested, without regard to their results.

| structure | A | B | C | D |
|---|---|---|---|---|
| `CN(CCc1ccccn1)C(=O)c1ccccc1F` | 5.051% | -6.378% | 0.1444% | 6.557% |
| `CCc1nc(Cn2nc(C3CCNCC3)n(-c3ccccc3)c2=O)cs1` | 4.865% | 5.2% | 3.438% | 19.18% |
| `CNC(=O)c1cc2c(nc1NCC(C)C)CCN(S(C)(=O)=O)CC2` | 6.522% | -58.16% | 4.624% | 6.579% |
| `COC(=O)c1cc(NS(=O)(=O)c2cn(C)cn2)c(F)cc1F` | 0% | -6.316% | 6.658% | 19.44% |
| `NC(=O)N1CCCCCC1C1CCN(c2nccc(C(F)(F)F)n2)CC1` (stereo not given) | 10.71% | -20.12% | 7.645% | 12.4% |
| `CC1CCN(S(=O)(=O)c2cccn(CC(=O)NC(C)(C)C)c2=O)CC1` | 2.041% | 1.222% | 6.696% | 11.57% |
| `CC(=O)N1CCC2(CC1)CN(C(=O)[C@@H]1CSCN1)c1ccc(Cl)cc12` | 20.67% | 10.03% | 5.021% | 25% |
| `Cc1ccc(C(=O)N2CCCC2c2nnc3n2CCCCC3)o1` (stereo not given) | 0.813% | -8.156% | -1.606% | -2.885% |
| `Cc1cccc(N2CC3(CCN(S(=O)(=O)C4CC4)C3)C2)n1` | 1.604% | 8.611% | 6.232% | 19.66% |
| `CCN1CCC2(CCN(c3ncccn3)CC2)C1=O` | 7.212% | -1.726% | 2.565% | 15.6% |
| `Cn1ccnc1SCCNC(=O)c1cc(S(N)(=O)=O)ccc1F` | 2.674% | -0.6256% | 1.73% | 6.806% |
| `Cc1nc(-c2ccc(S(=O)(=O)N3CCOCC3)cc2)co1` | 1.98% | -12.61% | 3.93% | 20.65% |
| `COc1ccc(CNC(C)c2ccc3[nH]c(=O)[nH]c3c2)cc1` (stereo not given) | -4.511% | 7.158% | 7.176% | 14.29% |
| `Cc1nc(NCc2ccccc2)cc(C(C)Cn2nc(C)c(C)c2C)n1` (stereo not given) | 6.061% | -16.23% | 0.5976% | 10.14% |
| `O=C(c1cnccn1)N1C[C@@H]2CN(Cc3cccnc3)CCO[C@@H]2C1` | 0.8264% | 6.394% | -6.006% | 14.55% |
| `COc1c(CNC2CCOc3ccccc32)c(C(C)C)nn1C` (stereo not given) | -0.3831% | 9.08% | 4.609% | 24.62% |
| `O=c1c(NCCCO)c(N2CCN(c3ccccc3)CC2)c1=O` | 1.22% | -5.037% | 4.586% | 15.79% |
| `Cc1cc2nccc(C3CCN(C(=O)c4ccccc4F)CC3)n2n1` | 3.101% | 0.5358% | 0.4721% | 8.511% |
| `Cc1noc2nc3c(c(C(=O)/N=c4\[nH]ncs4)c12)CCC3` | 4.95% | -4.56% | 4.415% | 26.09% |
| `Cc1cc(NC(=O)CN2CCc3c(nc(C(C)C)n3C)C2)n(C)n1` | 6.154% | -9.484% | -1.694% | 10.2% |
| `CC(C)N(CC(N)=O)Cc1csc(COc2ccc(F)cc2)n1` | 2.256% | 3.561% | 13.43% | -12.36% |
| `CC(C)OC(=O)N1C[C@H]2CC[C@@H]1CN(C(=O)c1ccccn1)C2` | 3.409% | 5.19% | -0.9509% | 6.667% |
| `CCc1ccc(CNC(=O)CCc2nnc(-c3ccc(C)s3)o2)nc1` | 4.762% | -11.25% | 3.533% | 5.882% |
| `CS(=O)(=O)Cc1nc(CNc2ccc(F)c(F)c2)cs1` | 6.557% | -1.444% | 3.187% | 16.44% |
| `COc1c(C)cnc(CNC(=O)c2cc(C)nc3c2c(C)nn3C)c1C` | 0% | 6.051% | 9.06% | 11.11% |
| `CCc1nc2c(NCC3COc4cc(OC)ccc4C3)ncnc2o1` (stereo not given) | 9.948% | 9.057% | 5.526% | 9.677% |
| `CN1CCC(c2nccnc2Nc2cnccn2)CC1` | 8.462% | -51.79% | 0.1017% | 8.451% |
| `COc1ccc(CN2CCCC(Nc3cccc(F)c3)C2)cc1O` (stereo not given) | 3.39% | -4.562% | 4.879% | 13.21% |
| `O=C(NCC(O)c1ccc(F)cc1F)c1ccccc1` (stereo not given) | 1.02% | 1.771% | 3.813% | 19.44% |
| `CN(C)c1ccc(NC(=O)CN2CCS(=O)(=O)CC2)cn1` | 1.587% | 11.35% | 6.158% | 24.66% |
| `CCOc1ccc(CN2CCc3nc4ccsc4c(=O)n3CC2)cc1` | 5.243% | -7.392% | 4.419% | 4% |
| `COC(=O)CN1CCN(c2nc3c(s2)c(C)nn3C)C(C)C1=O` (stereo not given) | 3.261% | 6.296% | 4.858% | 3.03% |
| `CC(C)NC(=O)N1CC[C@@H]2CN(Cc3cccc(Cl)c3)S(=O)(=O)[C@@H]2CC1` | 1.622% | 10.35% | -2.159% | -3.774% |
| `CCc1nc(NS(=O)(=O)c2cc(C)ccc2F)no1` | -2.075% | -2.518% | 0.2002% | 12.62% |
| `CCN(Cc1ccc2cccc(O)c2n1)CC1CCCO1` (stereo not given) | 23.24% | 8.048% | 11.82% | 73.97% |
| `CC(C)c1noc(CN2CCCN(Cc3cccs3)CC2)n1` | 9.143% | -14.09% | 3.43% | 26.92% |
| `O=C(N1CCCC1)N1C[C@H]2CCC[C@@]2(COCc2ccccn2)C1` | 3.518% | -5.089% | 2.762% | 21.78% |
| `CS(=O)(=O)CCCNC1(c2ccc(Br)cc2)CCC1` | 0.578% | -1.866% | 4.698% | 4% |
| `CN1CC2(CCN(C(=O)Cc3ccccn3)CC2)OCC1=O` | 5.747% | -3.016% | 6.023% | 22% |
| `O=C(Cc1cccnc1)NCCS(=O)(=O)c1ccccc1F` | 1.667% | -3.891% | -1.896% | 6.306% |
| `Cn1cnnc1C1CCCN1C(=O)Nc1cccc(OC(F)F)c1` (stereo not given) | 9.278% | -4.775% | 3.143% | 7.692% |
| `O=C(c1ccc2[nH]cnc2c1)N1CCC(Oc2cccnc2)CC1` | 0% | 2.358% | 1.168% | 17.95% |
| `N#Cc1c(Cl)nsc1NCCCN1C(=O)COc2ccccc21` | -2.618% | -2.798% | -0.39% | 12.07% |
| `Cc1cnn(CC2CCCN2C(=O)c2cccnc2-n2cncn2)c1` (stereo not given) | 2.579% | -0.09757% | -0.9505% | 5.263% |
| `O=C(NCc1ccc(F)cc1)NCC(O)(c1cccs1)C1CC1` (stereo not given) | -3.093% | 11.31% | 11.6% | 6.957% |
| `CCN(CC)C(=O)[C@@H]1C[C@@H](n2cc(-c3ccccn3)nn2)CN1` | 10.61% | -6.318% | 3.285% | 34.21% |
| `O=C(NC[C@H]1OC[C@@H]2CCN(c3ncccn3)C[C@@H]21)c1ccnnc1` | 4.813% | 3.739% | 2.035% | 24.79% |
| `CCc1cc(N(C)Cc2ccncn2)n2nc(C)c(C)c2n1` | 7.2% | -8.43% | 4.698% | 6.557% |
| `O=C(CCN1CCN(c2ccc3nncn3n2)CC1)NC1CCCC1` | 0% | -7.928% | 2.212% | 0% |
| `OCC(CO)Nc1ccc2ccc(Cl)c(Cl)c2n1` | 8.995% | 1.212% | -2.332% | 0% |
| `CCC(=O)Nc1cc(Br)cn(C)c1=O` | 12.99% | 1.227% | 10.99% | 103.3% |
| `CCS(=O)(=O)N1CCN(CCn2cccn2)c2nc(C)ccc2C1` | 6.542% | -16.29% | -3.056% | 11.11% |
| `CCc1nnsc1C(=O)N(C)Cc1nnc2n1CCC2` | 6.383% | 12.47% | 0.8422% | 1.429% |
| `CC(=O)NCC(=O)N1CCc2c(CNc3ncccn3)cncc2C1` | 5.882% | -7.214% | 1.694% | 8.571% |
| `Cc1ccc(S(=O)(=O)N2C[C@H]3C[C@H](NC(=O)c4ccnn4C)[C@H]3C2)cc1` | 5.946% | -0.0894% | 5.764% | 2.778% |
| `CC(C)(O)CCc1cccc(C(=O)N2CCC3(CCO3)CC2)c1` | 10.5% | 1.174% | 4.194% | 12.68% |
| `O=C(c1ccc(-c2cn[nH]c2)nc1)N1CCC(N2CCOCC2)CC1` | 2.591% | 1.334% | 5.438% | 8.602% |

Some entries from above, unchanged:

- O=C(Cc1cccnc1)NCCS(=O)(=O)c1ccccc1F | A: 1.667%; B: -3.891%; C: -1.896%; D: 6.306%
- CC(C)NC(=O)N1CC[C@@H]2CN(Cc3cccc(Cl)c3)S(=O)(=O)[C@@H]2CC1 | A: 1.622%; B: 10.35%; C: -2.159%; D: -3.774%
- Cc1cc(NC(=O)CN2CCc3c(nc(C(C)C)n3C)C2)n(C)n1 | A: 6.154%; B: -9.484%; C: -1.694%; D: 10.2%
- CCc1nc(NS(=O)(=O)c2cc(C)ccc2F)no1 | A: -2.075%; B: -2.518%; C: 0.2002%; D: 12.62%